Measurements as given in paper PMC2266940.
These are yes or no findings as the source states them, for the method shown. Binding seen in cells or lysates may run through a third protein. For some of these results: Binding can be weak; no strength is given. For some of these results: Sequences can lack the tags named with a protein.

Key:
ETO-V5 = target: T1, ETO-V5 (UniProt Q06455); test: co-IP; COS-7 cells co-transfected with V5-tagged ETO homologues and hSIN3B; IP and Western with α-V5 and α-hSIN3B
T1 sequence: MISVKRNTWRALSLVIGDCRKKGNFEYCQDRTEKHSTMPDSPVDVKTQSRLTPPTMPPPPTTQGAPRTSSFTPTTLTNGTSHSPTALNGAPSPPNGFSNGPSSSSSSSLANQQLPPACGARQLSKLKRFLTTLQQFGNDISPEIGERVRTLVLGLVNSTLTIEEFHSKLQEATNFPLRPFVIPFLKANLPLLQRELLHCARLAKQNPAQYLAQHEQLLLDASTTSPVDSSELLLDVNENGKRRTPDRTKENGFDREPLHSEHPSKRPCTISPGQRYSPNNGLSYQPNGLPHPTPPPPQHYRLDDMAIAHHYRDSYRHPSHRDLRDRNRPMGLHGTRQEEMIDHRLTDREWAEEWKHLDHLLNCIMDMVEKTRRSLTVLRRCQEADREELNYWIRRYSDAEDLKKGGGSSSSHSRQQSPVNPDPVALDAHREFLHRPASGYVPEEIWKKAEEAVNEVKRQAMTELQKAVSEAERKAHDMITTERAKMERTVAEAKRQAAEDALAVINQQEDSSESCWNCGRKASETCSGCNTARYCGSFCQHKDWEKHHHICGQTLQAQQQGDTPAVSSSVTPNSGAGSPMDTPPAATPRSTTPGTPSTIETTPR

MTG16-V5 = target: T2, MTG16-V5 (UniProt O75081); test: as above
T2 sequence: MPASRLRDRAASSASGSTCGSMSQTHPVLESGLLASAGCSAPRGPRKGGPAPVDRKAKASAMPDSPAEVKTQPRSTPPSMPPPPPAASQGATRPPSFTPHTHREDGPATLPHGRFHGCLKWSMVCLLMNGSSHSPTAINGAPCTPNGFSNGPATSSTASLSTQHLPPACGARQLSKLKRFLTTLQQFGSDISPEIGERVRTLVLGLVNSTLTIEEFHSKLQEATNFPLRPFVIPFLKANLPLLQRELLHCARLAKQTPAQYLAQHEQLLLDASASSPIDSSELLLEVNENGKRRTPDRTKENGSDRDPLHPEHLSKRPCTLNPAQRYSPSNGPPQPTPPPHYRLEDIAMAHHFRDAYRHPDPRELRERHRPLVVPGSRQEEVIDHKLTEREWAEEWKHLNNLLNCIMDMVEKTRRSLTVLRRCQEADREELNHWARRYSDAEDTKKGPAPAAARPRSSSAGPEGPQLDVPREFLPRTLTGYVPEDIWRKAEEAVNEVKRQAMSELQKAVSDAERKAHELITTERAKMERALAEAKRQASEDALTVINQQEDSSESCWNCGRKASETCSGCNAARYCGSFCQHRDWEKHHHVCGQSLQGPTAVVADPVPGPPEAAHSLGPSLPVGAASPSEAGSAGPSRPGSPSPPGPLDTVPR

MTGR1-V5 = target: T3, MTGR1-V5 (UniProt O43439); test: as above
T3 sequence: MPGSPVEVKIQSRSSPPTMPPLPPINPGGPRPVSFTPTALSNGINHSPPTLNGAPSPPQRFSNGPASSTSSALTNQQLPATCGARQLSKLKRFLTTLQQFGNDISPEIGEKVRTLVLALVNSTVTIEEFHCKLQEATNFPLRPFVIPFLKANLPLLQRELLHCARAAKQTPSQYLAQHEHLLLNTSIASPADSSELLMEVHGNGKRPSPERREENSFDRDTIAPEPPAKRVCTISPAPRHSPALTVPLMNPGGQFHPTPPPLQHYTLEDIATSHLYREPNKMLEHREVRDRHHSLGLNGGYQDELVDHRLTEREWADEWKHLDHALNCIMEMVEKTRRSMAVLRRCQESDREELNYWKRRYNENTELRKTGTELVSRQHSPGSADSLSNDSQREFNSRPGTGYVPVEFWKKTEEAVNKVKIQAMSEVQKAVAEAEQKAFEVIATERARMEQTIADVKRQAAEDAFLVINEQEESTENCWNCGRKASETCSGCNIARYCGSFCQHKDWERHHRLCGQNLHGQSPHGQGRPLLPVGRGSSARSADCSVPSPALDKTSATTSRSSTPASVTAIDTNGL

[1] = target: T4, MTGR1 (MTG-related protein 1) (UniProt O43439); test: co-IP; COS-7 cells co-transfected with pCMV5 constructs; lysis buffer 250 mM NaCl, 20 mM Na-phosphate, 30 mM Na-pyrophosphate (pH 7.0), 5 mM EDTA, 0.1% NP-40; IP overnight with 1 ug α-hSIN3B, α-ETO, α-MTGR1 or α-MTG16 and protein A-Sepharose; Western blot
T4 sequence: T3 sequence

[2] = target: T5, MTG16 (myeloid-transforming gene 16) (UniProt O75081); test: as above
T5 sequence: T2 sequence

ETO (eight twenty-one) = target: T6, ETO (eight twenty-one) (UniProt Q06455); test: as above
T6 sequence: T1 sequence

[3] = target: T7, ETO lacking 30 amino-terminal aminoacids (UniProt Q06455); test: as above
T7 sequence: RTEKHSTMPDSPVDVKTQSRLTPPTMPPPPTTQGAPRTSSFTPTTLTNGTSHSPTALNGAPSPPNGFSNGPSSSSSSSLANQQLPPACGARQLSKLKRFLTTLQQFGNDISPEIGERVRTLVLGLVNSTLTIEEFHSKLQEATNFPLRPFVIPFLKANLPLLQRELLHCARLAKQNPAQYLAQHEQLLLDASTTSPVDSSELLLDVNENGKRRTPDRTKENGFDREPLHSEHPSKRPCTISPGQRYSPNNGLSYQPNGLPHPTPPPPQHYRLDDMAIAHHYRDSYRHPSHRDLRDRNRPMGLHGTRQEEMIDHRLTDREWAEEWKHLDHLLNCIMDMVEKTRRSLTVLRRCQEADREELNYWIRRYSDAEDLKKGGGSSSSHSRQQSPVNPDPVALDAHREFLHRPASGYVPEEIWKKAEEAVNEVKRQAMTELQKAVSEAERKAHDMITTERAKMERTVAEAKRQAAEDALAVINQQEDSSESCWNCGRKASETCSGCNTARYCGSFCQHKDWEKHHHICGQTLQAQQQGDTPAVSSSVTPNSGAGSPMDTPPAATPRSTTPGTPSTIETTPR

With human SIN3B the binding (ETO-V5) was “binds”, the binding (MTG16-V5) was “binds” and the binding (MTGR1-V5) was “no binding”. For the same substance, the binding [1] was “no binding”, the binding [2] was “binds” and the binding (ETO (eight twenty-one)) was “binds”. The binding [3] was “no binding”.
